# According to US20040210040A1 (PDL BIOPHARMA, published 2004):
# These are yes or no findings as the source states them, for the method shown. For part of these data: Binding calls can cover weak binding; strength is not graded here.
# B1: PAR34 (murine anti-amphiregulin monoclonal antibody) (antibody, mouse IgG2b, V domains shown)
# VH: EIQLQQSGPELVKPGASVKVSCKASGYAFTNYNMYWVKQSHGKSLEWIGYIDPYYGDPGYSQKFKGKATLTVDKSSSTAYMHLNSLTSEDSAVYYCARRGNFPYYFDYWGQGTTLTVSS
# VL: DIKMTQSPSSMYASLGERVTITCKASQDINSYLSWFQQKPGKSPKTLIYRANRLVDGVPSRFSGSGSGQDYSLTISSLEYEDMGIYYCLQYDEFPYTFGGGTKLEIK
# B2: PAR80 (murine anti-amphiregulin monoclonal antibody) (antibody, mouse IgG2a, V domains shown)
# VH: EVQLQQSGAELVRSGASVKLSCTASGFNIKDYYIHWVKQRPEQGLEWIGCIDPENGDTEYAPNFQGRATMTADTSSNTAYLQLSSLTSEDTAVYYCYGGTITFAYWGQGTLVTVSA
# VL: QAVVTQESALTTSPGETVTLTCRSSTGAVTTSNSANWVQEKPDHLFTGLIGGTINRVPGVPARFSGSLIGDKAALTITGAQTEDEAIYFCALWYSNHWVFGGGTKLTVLG
# Columns and labels:
# EGF [1] = test: ELISA (summary of FIG. 2)
# HB-EGF [2] = test: ELISA (summary of FIG. 2)
# EGF [3] = test: direct binding ELISA (table column BINDING: EGF)
# HB-EGF [4] = test: direct binding ELISA (table column BINDING: HB EGF)
# [5] = biological target: Cyno AR (cynomolgus monkey); test: direct binding ELISA (table column BINDING: Cyno AR)
# Murine AR (mouse) = test: direct binding ELISA (table column BINDING: Murine AR)
binder,measurement,setting,value
B1,binding,EGF [1],no binding
same,binding,HB-EGF [2],no binding
same,binding,EGF [3],no binding
same,binding,HB-EGF [4],no binding
same,binding,[5],binds
same,binding,Murine AR (mouse),binds
B2,binding,EGF [1],no binding
same,binding,HB-EGF [2],no binding
same,binding,EGF [3],no binding
same,binding,HB-EGF [4],no binding
same,binding,[5],binds
same,binding,Murine AR (mouse),no binding
